# Laboratory results: paper PMC6877959 (Oxidative Medicine and Cellular Longevity, 2019)
# Strings that start with PEPTIDE1 are HELM notation: dots part the residues, brackets hold end groups and non-standard residues.
# Test: general procedure: Fmoc solid-phase peptide synthesis; Wang resin; HBTU/HOAt/DIEA
# Details: whole synthesis, 214 nm, scale of the general procedure 0.150 g resin, 0.69 mmol/g
substance,measurement,value
PEPTIDE1{S.F.N.P.T.Q.L}$$$$V2.0,final HPLC purity,>98%
